± gives the standard deviation of the averaged measurements. Only a part is listed here, and it is no random draw.

Protein sequences, listed by entry. Tags and fused reporters are not part of them. Lines headed by an entry give the natural chain unless they say otherwise; changes in a name come on top.
UniProt P36776: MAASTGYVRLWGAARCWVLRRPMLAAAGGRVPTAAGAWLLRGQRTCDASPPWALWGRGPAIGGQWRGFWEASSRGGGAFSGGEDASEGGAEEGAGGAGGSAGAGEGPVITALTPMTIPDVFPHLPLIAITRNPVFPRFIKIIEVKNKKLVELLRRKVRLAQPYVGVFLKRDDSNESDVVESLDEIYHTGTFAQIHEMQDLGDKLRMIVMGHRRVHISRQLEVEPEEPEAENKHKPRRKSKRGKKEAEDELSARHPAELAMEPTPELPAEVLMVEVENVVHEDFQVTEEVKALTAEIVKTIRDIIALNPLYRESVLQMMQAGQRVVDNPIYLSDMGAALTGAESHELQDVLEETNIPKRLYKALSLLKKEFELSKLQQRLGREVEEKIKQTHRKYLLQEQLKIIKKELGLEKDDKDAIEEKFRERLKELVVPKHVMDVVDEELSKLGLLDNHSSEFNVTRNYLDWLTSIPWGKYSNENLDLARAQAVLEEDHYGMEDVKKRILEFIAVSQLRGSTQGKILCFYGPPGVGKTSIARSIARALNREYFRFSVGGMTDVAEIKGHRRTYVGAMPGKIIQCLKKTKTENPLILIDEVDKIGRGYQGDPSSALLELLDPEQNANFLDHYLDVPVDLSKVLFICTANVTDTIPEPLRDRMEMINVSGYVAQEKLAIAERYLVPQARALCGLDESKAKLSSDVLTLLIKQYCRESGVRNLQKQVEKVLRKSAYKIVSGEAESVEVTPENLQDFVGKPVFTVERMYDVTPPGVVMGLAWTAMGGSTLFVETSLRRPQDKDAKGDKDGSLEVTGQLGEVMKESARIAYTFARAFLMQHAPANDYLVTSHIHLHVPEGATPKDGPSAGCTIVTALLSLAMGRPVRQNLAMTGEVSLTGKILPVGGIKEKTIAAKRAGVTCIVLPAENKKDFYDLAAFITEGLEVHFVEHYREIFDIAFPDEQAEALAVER
UniProt Q9P246, whole entry: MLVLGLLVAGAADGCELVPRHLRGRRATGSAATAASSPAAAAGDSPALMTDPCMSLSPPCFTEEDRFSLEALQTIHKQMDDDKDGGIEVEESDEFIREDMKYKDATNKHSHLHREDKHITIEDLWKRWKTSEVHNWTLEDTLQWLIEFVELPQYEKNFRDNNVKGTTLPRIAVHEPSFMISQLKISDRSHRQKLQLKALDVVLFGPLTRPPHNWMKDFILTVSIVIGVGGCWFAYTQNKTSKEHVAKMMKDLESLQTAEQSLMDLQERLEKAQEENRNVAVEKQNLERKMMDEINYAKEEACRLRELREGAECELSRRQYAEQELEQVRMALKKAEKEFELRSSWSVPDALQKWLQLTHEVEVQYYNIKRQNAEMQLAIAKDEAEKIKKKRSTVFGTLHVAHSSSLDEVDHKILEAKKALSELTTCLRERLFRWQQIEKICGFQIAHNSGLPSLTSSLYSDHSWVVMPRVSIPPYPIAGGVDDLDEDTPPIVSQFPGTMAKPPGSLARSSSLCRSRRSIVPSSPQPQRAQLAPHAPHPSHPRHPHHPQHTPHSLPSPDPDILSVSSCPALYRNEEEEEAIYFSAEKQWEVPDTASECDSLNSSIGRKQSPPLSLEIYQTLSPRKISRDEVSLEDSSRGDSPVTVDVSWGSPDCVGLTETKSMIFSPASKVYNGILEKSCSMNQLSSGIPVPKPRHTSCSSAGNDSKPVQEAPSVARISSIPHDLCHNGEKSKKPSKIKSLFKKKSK
UniProt Q9GZU7: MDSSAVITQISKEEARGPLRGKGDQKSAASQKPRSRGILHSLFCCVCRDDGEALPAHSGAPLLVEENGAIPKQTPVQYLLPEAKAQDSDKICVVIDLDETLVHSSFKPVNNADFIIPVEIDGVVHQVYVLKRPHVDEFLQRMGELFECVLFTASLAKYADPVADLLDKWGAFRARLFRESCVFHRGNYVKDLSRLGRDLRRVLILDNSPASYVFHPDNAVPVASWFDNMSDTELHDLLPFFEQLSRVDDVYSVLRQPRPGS
UniProt Q96PV7: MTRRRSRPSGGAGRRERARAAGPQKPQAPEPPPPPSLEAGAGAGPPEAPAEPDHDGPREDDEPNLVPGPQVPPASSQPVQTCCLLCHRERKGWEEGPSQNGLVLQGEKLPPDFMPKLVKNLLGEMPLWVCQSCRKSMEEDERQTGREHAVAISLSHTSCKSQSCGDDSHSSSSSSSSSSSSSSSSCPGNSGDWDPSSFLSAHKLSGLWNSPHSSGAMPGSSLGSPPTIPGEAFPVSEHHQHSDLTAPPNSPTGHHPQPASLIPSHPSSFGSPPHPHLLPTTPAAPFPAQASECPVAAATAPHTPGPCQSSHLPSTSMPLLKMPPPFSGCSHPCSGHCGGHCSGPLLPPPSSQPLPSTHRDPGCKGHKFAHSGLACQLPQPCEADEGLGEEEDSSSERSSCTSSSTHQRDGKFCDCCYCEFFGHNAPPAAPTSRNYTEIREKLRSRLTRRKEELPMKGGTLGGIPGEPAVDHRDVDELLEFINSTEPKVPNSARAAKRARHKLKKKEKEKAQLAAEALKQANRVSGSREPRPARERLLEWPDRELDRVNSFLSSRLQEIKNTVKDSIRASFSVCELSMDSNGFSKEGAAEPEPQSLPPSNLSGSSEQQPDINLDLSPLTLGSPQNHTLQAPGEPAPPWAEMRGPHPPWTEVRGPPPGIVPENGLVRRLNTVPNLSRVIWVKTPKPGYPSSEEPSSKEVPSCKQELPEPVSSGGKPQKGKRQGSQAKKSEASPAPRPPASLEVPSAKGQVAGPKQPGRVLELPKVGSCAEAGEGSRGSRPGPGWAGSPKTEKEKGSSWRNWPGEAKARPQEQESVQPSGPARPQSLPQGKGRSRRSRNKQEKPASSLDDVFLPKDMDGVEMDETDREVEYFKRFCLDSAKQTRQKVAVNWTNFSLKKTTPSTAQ
UniProt Q9H930: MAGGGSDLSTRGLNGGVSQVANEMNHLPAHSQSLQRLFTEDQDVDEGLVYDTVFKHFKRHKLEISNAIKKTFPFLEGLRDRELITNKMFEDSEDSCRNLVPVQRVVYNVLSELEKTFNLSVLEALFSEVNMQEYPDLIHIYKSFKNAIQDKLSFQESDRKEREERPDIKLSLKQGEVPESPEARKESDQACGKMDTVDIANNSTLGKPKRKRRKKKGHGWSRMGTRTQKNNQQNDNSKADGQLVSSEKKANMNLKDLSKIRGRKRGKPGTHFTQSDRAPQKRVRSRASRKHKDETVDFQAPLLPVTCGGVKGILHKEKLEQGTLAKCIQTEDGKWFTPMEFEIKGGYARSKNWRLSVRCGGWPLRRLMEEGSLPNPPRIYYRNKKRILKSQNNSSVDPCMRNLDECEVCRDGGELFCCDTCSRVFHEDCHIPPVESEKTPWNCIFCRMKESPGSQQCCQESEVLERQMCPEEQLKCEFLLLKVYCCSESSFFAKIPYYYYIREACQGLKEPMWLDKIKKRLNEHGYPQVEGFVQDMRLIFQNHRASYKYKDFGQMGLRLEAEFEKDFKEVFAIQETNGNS
UniProt Q93009, whole entry, looked up: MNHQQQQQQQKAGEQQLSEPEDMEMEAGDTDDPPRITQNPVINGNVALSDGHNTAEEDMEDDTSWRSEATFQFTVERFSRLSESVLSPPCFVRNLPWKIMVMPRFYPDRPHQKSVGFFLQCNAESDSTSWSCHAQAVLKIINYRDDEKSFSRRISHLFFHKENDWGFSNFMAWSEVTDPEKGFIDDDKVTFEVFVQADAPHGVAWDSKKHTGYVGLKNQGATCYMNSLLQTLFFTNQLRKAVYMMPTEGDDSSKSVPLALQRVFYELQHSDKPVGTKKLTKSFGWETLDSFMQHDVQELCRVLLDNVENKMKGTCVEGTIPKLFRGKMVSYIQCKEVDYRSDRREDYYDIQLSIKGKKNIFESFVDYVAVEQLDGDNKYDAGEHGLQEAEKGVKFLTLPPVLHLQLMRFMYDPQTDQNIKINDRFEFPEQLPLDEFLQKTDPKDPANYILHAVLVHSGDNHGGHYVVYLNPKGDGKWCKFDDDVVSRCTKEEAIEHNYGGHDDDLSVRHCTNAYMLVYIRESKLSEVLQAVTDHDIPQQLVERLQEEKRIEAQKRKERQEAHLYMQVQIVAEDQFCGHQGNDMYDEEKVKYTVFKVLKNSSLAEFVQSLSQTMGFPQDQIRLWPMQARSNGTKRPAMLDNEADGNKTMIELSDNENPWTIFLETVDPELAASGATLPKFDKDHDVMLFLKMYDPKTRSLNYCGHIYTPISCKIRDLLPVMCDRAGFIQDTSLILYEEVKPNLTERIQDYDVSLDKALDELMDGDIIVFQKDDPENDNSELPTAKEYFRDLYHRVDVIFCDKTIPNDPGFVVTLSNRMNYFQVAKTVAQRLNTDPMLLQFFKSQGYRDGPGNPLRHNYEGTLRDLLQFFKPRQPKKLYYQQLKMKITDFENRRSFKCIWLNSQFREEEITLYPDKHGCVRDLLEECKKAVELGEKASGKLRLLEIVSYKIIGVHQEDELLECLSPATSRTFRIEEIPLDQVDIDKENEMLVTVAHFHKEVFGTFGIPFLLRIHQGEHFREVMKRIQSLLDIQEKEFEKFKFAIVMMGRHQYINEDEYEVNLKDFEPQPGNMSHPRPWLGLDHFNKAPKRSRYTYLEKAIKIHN
UniProt O43414: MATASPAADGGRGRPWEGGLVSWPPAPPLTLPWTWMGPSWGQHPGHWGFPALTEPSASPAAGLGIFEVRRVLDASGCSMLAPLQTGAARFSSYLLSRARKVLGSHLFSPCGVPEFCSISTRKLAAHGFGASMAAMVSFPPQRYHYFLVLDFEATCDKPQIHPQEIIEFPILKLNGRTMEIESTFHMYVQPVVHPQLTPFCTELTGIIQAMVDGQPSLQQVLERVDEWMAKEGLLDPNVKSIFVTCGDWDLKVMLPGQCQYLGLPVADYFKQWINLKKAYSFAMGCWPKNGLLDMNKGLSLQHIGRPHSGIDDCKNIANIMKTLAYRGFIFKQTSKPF
UniProt Q6UUV9: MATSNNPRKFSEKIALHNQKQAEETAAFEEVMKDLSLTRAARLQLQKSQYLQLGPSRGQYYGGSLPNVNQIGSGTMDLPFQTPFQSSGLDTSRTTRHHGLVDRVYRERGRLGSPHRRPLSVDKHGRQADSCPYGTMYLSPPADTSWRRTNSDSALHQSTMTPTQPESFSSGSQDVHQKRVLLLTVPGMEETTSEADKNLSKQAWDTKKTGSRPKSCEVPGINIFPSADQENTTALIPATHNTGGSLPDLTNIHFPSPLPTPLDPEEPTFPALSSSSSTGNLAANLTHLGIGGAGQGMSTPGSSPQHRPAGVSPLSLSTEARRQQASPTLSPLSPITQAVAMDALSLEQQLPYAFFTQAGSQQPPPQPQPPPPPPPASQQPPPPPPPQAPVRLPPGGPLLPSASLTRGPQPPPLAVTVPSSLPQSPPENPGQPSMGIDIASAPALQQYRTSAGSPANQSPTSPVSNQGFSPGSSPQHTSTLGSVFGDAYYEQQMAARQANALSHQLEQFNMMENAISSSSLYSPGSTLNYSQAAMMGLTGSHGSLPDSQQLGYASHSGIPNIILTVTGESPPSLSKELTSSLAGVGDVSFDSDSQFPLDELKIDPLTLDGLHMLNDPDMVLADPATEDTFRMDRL
UniProt Q96AJ1: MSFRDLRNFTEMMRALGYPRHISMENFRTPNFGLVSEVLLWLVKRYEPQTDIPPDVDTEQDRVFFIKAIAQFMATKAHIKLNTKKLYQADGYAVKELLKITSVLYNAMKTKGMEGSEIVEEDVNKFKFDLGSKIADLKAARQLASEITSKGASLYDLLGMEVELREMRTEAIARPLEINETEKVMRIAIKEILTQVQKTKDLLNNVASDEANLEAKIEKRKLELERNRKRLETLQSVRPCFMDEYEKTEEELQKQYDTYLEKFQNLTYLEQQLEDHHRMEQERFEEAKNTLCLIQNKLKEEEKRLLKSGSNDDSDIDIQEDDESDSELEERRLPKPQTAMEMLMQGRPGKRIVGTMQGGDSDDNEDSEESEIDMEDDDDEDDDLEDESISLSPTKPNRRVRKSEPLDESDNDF
UniProt Q9UQB8: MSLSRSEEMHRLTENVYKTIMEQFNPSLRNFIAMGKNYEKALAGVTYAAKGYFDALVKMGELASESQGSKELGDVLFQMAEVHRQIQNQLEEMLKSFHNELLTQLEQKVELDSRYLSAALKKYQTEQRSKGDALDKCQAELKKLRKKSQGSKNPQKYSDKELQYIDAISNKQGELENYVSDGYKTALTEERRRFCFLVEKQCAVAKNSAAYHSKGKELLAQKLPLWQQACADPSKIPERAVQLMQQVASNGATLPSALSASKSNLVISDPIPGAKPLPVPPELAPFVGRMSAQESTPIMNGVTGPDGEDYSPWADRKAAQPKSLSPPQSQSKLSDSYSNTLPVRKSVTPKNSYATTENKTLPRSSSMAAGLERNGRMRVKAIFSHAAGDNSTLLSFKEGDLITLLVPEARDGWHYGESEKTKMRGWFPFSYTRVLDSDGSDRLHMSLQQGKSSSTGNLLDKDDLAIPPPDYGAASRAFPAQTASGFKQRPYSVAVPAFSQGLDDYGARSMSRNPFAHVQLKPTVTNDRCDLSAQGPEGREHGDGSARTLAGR

This is an account of results in the supplement of paper PMC6411743.

Compound in the first assay: Nc1ncnc2c1ncn2[C@@H]1O[C@H](COP(=O)(O)OP(=O)(O)OP(=O)(O)O)[C@@H](O)[C@H]1O [adenosine triphosphate]
The assay can be described thus: NP40-soluble protein abundance relative to vehicle (solubility fold change) (ratio); higher = more soluble protein in presence of ATP. The conditions noted are these: concentration: 4mM. An outline of the steps: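 Data come from three independent experiments in which Dounce-homogenised Jurkat crude lysate was treated at eight concentrations from 0.1 to 10 mM. Treatment ran 10 min at room temperature and then 3 min at 37 °C, after which 0.8% NP40 and benzonase were added for 60 min at 4 °C before ultracentrifugation. The supernatant underwent TMT labelling and LC-MS/MS, and vsn-normalised intensities were expressed as fold change against the detergent-processed vehicle in each replicate.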
“H3BTA2 and related entries (UniProt P60510)”: the NP40-soluble protein abundance came out at 0.976 ± 0.056.
Still for that read-out and setting: the figure for “J3KNP4 and related entries (UniProt Q9NPR2)” is 0.964 ± 0.074.
The same measure, in the same setting: with “K4DI93 and related entries (UniProt Q13620)” the figure was 0.94 ± 0.049.
Regarding “K7EKE6 and related entries (UniProt P36776)”, the NP40-soluble protein abundance came out at 0.977 ± 0.041.
The same measure, in the same setting: the figure for “H0Y860 and related entries (UniProt Q9P246)” is 1.06 ± 0.093; for “K7EQ37 and related entries (UniProt Q70J99)” it is 1.01 ± 0.057.
On the same count and under the same terms, with “K7ER53 and related entries (UniProt O95644)” the figure was 1.03 ± 0.089; with “H7C1Z7 and related entries (UniProt Q9GZU7)”, 1.19 ± 0.23; with “H0Y8W3 and related entries (UniProt O43566)”, 0.993 ± 0.014.
Same read-out and setting: with “I3L3K5 and related entries (UniProt O95476)” the figure was 1.02 ± 0.1.
“H0YK61 and related entries (UniProt Q5J8M3)”: the NP40-soluble protein abundance turned out to be 0.955 ± 0.073.
The same measure, in the same setting: with “H6UMI1 and related entries (UniProt O95166)” the figure was 0.87 ± 0.027; with “H0YCX2 and related entries (UniProt Q96PV7)”, 1.29 ± 0.097; with “H0YIE9 and related entries (UniProt O94952)”, 1.03 ± 0.13.
On the same count and under the same terms, the figure for “J3QTA2 and related entries (UniProt Q99933)” is 1.07 ± 0.096; for “J3KSB5 and related entries (UniProt P21359)” it is 1.06 ± 0.13.

The same assay, now with this note: concentration: 6mM.
In the case of “H7BYP4 and related entries (UniProt Q9H930)”, the NP40-soluble protein abundance worked out at 0.97 ± 0.037.
Still for that read-out and setting: the figure for “J3QRU1 and related entries (UniProt P07947)” is 0.997 ± 0.18.
Still for that read-out and setting: the figure for “H0Y5D5 and related entries (UniProt Q9ULV3)” is 1.02 ± 0.021.
The same measure, in the same setting: the figure for UniProt I3L0E3 is 0.884 ± 0.13; for “H0Y360 and related entries (UniProt Q01433)” it is 0.915 ± 0.015; for “H3BQD1 and related entries (UniProt Q93009)” it is 0.971 ± 0.1.
On to “H3BPU4 and related entries (UniProt Q9UGJ1)”, for which the NP40-soluble protein abundance worked out at 1.08 ± 0.1.
On the same count and under the same terms, with “H0Y4B0 and related entries (UniProt O43414)” the figure was 0.907 ± 0.11; with “K7EPA3 and related entries (UniProt Q9NX61)”, 0.912 ± 0.14; with “J3KQJ1 and related entries (UniProt Q8NBJ7)”, 0.97 ± 0.02.
Take “M0QX46 and related entries (UniProt Q6UUV9)”: the NP40-soluble protein abundance turned out to be 0.978 ± 0.069.
Same read-out and setting: with “I3L121 and related entries (UniProt Q96AJ1)” the figure was 1.12 ± 0.2; with “I3L4C2 and related entries (UniProt Q9UQB8)”, 0.959 ± 0.051; with “K7EL68 and related entries (UniProt Q16543)”, 0.97 ± 0.045.
On the same count and under the same terms, with “H7C3H7 and related entries (UniProt Q12873)” the figure was 1.34 ± 0.041; with “H7C2Q8 and related entries (UniProt Q99848)”, 1.18 ± 0.16.
With “I3L2C7 and related entries (UniProt P57678)”, the NP40-soluble protein abundance was determined as 0.854 ± 0.031.
Still for that read-out and setting: the figure for L0R819 (UniProt Q9NWL6) is 1.04 ± 0.22.
Same read-out and setting: with “H0Y997 and related entries (UniProt Q96J42)” the figure was 0.906 ± 0.066.
Turning to “H3BTA2 and related entries (UniProt P60510)”, the NP40-soluble protein abundance was 0.965 ± 0.076.
On the same count and under the same terms, the figure for “J3KNP4 and related entries (UniProt Q9NPR2)” is 0.957 ± 0.047; for “K4DI93 and related entries (UniProt Q13620)” it is 0.905 ± 0.079; for “K7EKE6 and related entries (UniProt P36776)” it is 0.963 ± 0.064.
The same measure, in the same setting: with “H0Y860 and related entries (UniProt Q9P246)” the figure was 1.09 ± 0.13; with “K7EQ37 and related entries (UniProt Q70J99)”, 0.935 ± 0.094; with “K7ER53 and related entries (UniProt O95644)”, 1.05 ± 0.17.
Still for that read-out and setting: the figure for “H7C1Z7 and related entries (UniProt Q9GZU7)” is 1.16 ± 0.15.
Turning to “H0Y8W3 and related entries (UniProt O43566)”, the NP40-soluble protein abundance was 0.999 ± 0.017.
The same measure, in the same setting: the figure for “I3L3K5 and related entries (UniProt O95476)” is 1.01 ± 0.098.
For “H0YK61 and related entries (UniProt Q5J8M3)”, the NP40-soluble protein abundance turned out to be 0.981 ± 0.054.
Still for that read-out and setting: with “H6UMI1 and related entries (UniProt O95166)” the figure was 0.987 ± 0.038; with “H0YCX2 and related entries (UniProt Q96PV7)”, 1.35 ± 0.11.
Same read-out and setting: with “H0YIE9 and related entries (UniProt O94952)” the figure was 1.01 ± 0.12.
Same read-out and setting: with “J3QTA2 and related entries (UniProt Q99933)” the figure was 1.07 ± 0.076; with “J3KSB5 and related entries (UniProt P21359)”, 1.03 ± 0.045.
